From ChEMBL document CHEMBL3988442, “University of Dundee, Small-Polar-MMV Screening Library” (2021).

Protein sequences, listed by entry. Tags and fused reporters are not part of them. Residues count along the entry.
UniProt A4I591, 1-473: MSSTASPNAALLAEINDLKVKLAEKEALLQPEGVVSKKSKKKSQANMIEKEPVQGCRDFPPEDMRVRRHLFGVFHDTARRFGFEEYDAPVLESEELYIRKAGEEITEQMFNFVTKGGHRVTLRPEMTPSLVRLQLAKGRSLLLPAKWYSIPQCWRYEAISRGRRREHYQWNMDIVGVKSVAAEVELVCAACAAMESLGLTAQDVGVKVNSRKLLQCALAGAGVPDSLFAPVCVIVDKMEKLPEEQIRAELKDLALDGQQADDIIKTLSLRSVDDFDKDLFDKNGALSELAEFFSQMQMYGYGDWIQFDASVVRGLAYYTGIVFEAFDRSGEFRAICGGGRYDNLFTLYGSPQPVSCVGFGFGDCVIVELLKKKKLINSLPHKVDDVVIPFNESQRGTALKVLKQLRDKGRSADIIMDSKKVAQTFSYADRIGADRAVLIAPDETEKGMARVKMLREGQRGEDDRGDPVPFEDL
UniProt I6X8D2, whole entry: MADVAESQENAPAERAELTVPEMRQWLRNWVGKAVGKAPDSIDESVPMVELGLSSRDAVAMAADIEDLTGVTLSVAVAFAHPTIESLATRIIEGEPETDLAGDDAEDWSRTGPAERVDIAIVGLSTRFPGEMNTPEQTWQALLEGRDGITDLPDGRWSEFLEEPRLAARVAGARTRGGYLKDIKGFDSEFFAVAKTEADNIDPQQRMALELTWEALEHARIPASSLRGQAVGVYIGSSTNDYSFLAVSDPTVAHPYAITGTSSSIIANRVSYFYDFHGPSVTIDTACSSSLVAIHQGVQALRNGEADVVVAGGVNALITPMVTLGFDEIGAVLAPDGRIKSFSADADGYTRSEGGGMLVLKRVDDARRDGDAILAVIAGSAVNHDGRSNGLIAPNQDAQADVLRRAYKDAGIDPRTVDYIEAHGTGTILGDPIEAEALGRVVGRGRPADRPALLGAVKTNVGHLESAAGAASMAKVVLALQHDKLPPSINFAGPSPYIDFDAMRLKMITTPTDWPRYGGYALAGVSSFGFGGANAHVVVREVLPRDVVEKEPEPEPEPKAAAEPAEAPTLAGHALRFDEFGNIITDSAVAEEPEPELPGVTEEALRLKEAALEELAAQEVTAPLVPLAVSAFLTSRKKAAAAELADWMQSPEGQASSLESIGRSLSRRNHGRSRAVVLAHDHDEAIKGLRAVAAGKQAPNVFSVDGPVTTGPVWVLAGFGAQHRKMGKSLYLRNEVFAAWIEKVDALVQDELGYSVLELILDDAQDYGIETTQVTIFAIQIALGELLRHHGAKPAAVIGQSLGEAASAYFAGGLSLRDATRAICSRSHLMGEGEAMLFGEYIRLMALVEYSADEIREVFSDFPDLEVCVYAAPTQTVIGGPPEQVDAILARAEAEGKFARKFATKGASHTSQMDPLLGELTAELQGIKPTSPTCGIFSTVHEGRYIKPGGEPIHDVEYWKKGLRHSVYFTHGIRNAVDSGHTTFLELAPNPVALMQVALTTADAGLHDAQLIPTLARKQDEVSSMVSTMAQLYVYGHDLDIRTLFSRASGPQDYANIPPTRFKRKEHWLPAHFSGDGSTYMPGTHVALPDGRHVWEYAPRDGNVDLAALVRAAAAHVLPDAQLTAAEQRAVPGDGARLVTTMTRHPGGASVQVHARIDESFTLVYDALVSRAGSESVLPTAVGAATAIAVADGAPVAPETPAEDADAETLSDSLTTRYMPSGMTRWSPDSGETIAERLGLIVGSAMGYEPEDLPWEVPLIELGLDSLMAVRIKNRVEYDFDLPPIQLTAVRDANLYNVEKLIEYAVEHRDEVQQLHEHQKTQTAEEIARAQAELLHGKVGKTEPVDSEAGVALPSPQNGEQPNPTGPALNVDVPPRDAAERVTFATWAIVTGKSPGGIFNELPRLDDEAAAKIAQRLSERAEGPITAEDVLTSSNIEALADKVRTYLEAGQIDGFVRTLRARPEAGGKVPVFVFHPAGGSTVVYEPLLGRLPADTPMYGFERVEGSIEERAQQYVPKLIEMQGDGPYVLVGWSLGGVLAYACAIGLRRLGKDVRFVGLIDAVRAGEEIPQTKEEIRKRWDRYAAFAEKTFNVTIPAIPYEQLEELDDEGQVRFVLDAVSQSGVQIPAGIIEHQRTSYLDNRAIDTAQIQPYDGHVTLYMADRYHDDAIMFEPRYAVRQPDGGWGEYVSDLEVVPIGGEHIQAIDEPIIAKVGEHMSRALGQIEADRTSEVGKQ

A: 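Enzyme assay of histidyl-tRNA synthetase; the read-out is not stated. Target: Histidine-tRNA ligase, Leishmania infantum (UniProt A4I591). Concentration: 30 µM. Direction is inferred from retests: higher values go with stronger inhibition. The assay is labelled LdHisRS but filed under L. infantum. Size under these conditions: about 69,000 compounds, about 410 of them at 50% or above in at least one test.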
B: 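Polyketide synthase Pks13, Mycobacterium tuberculosis (UniProt I6X8D2). Enzyme assay of the thioesterase domain of polyketide synthase 13; the read-out is not stated. Compounds at 30 µM. Higher reads as stronger inhibition (inferred from which compounds were picked for retests). About 67,000 compounds were tested under these conditions; 0.46% (about 300) showed 50% or more at least once.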
C: 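Cell assay of Leishmania donovani living inside macrophages; the read-out is not stated. Concentration: 30 µM. The record gives no direction; compounds that gave an IC50 in retests scored well above the rest, so higher reads as stronger inhibition. Size under these conditions: about 69,000 compounds, about 1,000 of them at 50% or above in at least one test.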

The filed quantity is “Percent Effect” (%).
How 0% and 100% were set is not recorded. Most values in the screen are low, and negative values occur.
This is an unselected part of the compounds tested.
Two or more numbers in one place are separate tests of the same structure; such repeats can differ widely.

For NC(=O)c1cccc(OCC(=O)N2CCCC(n3ccnc3)C2)c1 (configuration not stated) the result was A: -1.786%; B: -16.63%; C: 25.14%.
For CC[C@H](C)[C@H](N)C(=O)N1CC(=O)c2sc(NCc3ccccc3)nc2C1 the result was A: 28.57%; C: 2.711% and 11.3%.
For O=C(NCc1cc(O)ncn1)C1COc2ccccc2C1 (configuration not stated) the result was A: 19.05%; B: 12.32%; C: 2.823%.
For CC(=O)N1CC(=O)N(c2ccccc2)CC12CCN(Cc1cccs1)C2 (configuration not stated) the result was A: 18.87%; B: -16.66%.
For COc1cccc(-c2ccc(CNC(=O)c3ccc(=O)n(C)c3)cc2)c1 the result was A: 14.58%; B: -15.93%; C: -0.9234%.
For CCC(C)NC(=O)c1cc(S(=O)(=O)N2CCCC2)c(C)s1 (configuration not stated) the result was A: 24.16%; B: -12.98%; C: 7.311%.
For COCc1nc(C(=O)N2CCCC(n3nc(C)cc3C)C2)cs1 (configuration not stated) the result was A: 13.16%; B: -6.851%; C: 14.25%.
For CN(CCC(O)c1ccccc1)Cc1ccccc1C#N (configuration not stated) the result was A: 17.82%; B: 2.615%; C: 35.76%.
For O=C(c1nn(-c2ccccc2F)cc1O)N1CCCC1 the result was A: 3.077%; B: -8.317%; C: 0.8316%.
For O=C(Nc1ccc(F)cc1)C1CNCCN1C(=O)CSc1ccncc1 (configuration not stated) the result was A: 10%; B: 23.36%; C: 38.18%.
For CCN(C)c1ncnc2c1CCN(Cc1ccncc1)CC2 the result was A: 0.885%.
For Cc1noc(C2CCN(C(=O)c3ccc(N(C)C)nc3)CC2)n1 the result was A: 21.28%; B: -5.384%; C: 28.03%.
For CC(C)(N)c1cn([C@@H]2c3ccccc3C3(CCNCC3)[C@H]2O)nn1 the result was A: 21.21%; B: -27.71%; C: 0.6144%.
For CCN1CCCN(c2ccc(-n3ccc(C)n3)nn2)CC1 the result was A: 1.299%; B: -11.17%; C: 11.1%.
For COCCN(CCOC)c1nc2c(s1)c(C)nn2C the result was A: 13.33%; B: -12.64%; C: 4.798%.
For Cc1nn2c(N3CCC(C#N)CC3)cc(-c3ccccc3)nc2c1C the result was A: 9.677%; B: 2.447%; C: 14.14%.
For N#Cc1ccnc(N2CCN(C(=O)c3ccc4c(c3)CCO4)CC2)c1 the result was A: 13.56%; B: 0.2177%; C: -46.75%.
For CS(=O)(=O)c1ccc(CN2CCCCC2c2cccc(F)c2)cc1 (configuration not stated) the result was A: 23.66%; B: -12.71%; C: 0.2788%.
For CCn1c(C)nnc1CN(C)C1CCN(CC2CCC2)C1 (configuration not stated) the result was A: 16.81%; B: -20.02%; C: 7.241%.
For Cc1ncc(CN(C)C(=O)c2ccc(N3CCOCC3)c(F)c2)s1 the result was A: 13.33%; B: -44.57%; C: -0.1374%.
For O=C(NC1CCCN(Cc2c(F)cccc2F)C1)c1cnccn1 (configuration not stated) the result was A: 2.073%; B: -4.766%; C: 5.313%.
For O=C(O)C(F)(F)F.[H][C@]12CCC[C@@]1(COCC1CC1)CN(Cc1cnn(C)c1)C2 the result was C: 55.4%.
For OC(CNc1cncc(OCc2ccccc2)n1)c1ccco1 (configuration not stated) the result was A: 25.37%; B: -23.79%; C: -0.08082%.
For c1ccc(-c2cc(CN3CCC(c4ccn[nH]4)CC3)on2)cc1 the result was A: 17.31%; B: -10.67%; C: 56.61%.
For CO[C@H]1CCN(Cc2c(C)noc2C)[C@@H]2CN(Cc3ccncc3)C[C@H]12 the result was A: 1.887%; B: 13.06%.
For CC1=C[C@@H](CNS(C)(=O)=O)[C@H](C(C)C)C[C@H]1CC(=O)NCCN(C)C the result was A: 5.556%; B: -26.44%; C: -27.83%.
For Cc1noc(C)c1CN1CCCC2(CCN(C(=O)NC3CC3)C2)C1 (configuration not stated) the result was A: 26.83%; B: -3.056%.
For CC(NC(=O)c1ccc(=O)n(C)c1)c1ccc(OCC2CC2)c(F)c1 (configuration not stated) the result was A: 3.774%; B: -2.992%; C: 4.811%.
For CC(C)(C)CC(=O)Nc1ncn(CC(=O)NCc2ccccc2)n1 the result was A: 11.29%; B: -36.35%; C: 2.311%.
For CC(C)C1CN(S(=O)(=O)C2CC2)CCCN1Cc1ccc(F)cc1 (configuration not stated) the result was A: 22.37%; B: -21.33%; C: 31%.
For COc1cc(CNCC(O)c2ccccc2)cc2c1OCO2.Cl (configuration not stated) the result was C: 24.33%.
For O=C(c1ccccn1)N1C[C@H]2CCC[C@@]2(COCC2CCOCC2)C1 the result was A: 10.09%; B: -4.03%.
For Cc1cc(C(=O)N2C[C@@H]3[C@@H](C2)OCC(=O)N3CC2CC2)no1 the result was A: -91.51%; B: 9.092%.
For COc1ccc(C(=O)N2CCO[C@H]3[C@@H](OCC4CC4)CC[C@@H]32)cc1F the result was A: 12.07%; B: -21.51%.
For CN(C)C1(CNc2ncc(Br)cn2)CCOCC1 the result was A: 10.96%; B: -17.71%; C: -4.439%.
For CCN(C(=O)CN1CCCC1c1c(C)nn(C)c1OC)C1CC1 (configuration not stated) the result was A: 6.667%; B: 12.71%; C: 16.1%.
For CCC(C)(C)NC(=O)CN1C=Nc2ccccc2S1(=O)=O the result was A: 13.16%; B: -8.498%; C: -7.705%.